Source: publication PMC4381359
No constants are given. Whether binding was seen depends on the method and setting. Binding seen in cells or lysates may run through a third protein. A result given as binding can be weak or reduced; the word gives no strength.

The chains behind the UniProt entries cited, without tags or fusion partners. Where a name states a change or a piece, a line headed by the entry shows the natural chain unless it says otherwise.
UniProt Q13153: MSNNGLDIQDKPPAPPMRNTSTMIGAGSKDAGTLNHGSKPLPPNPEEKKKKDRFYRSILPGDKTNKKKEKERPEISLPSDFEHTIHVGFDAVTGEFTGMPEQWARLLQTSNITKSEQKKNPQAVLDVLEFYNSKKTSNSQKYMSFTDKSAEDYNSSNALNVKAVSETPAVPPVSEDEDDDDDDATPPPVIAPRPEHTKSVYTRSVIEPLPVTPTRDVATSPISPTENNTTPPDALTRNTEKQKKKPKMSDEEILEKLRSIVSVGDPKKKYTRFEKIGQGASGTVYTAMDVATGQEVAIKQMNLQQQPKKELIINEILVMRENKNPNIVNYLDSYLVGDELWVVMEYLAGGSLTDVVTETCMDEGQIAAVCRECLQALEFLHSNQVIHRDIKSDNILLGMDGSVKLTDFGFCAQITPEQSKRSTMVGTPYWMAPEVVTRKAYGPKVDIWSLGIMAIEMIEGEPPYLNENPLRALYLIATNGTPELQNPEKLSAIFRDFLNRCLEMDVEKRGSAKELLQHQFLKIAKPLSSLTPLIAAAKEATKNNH
UniProt P60953: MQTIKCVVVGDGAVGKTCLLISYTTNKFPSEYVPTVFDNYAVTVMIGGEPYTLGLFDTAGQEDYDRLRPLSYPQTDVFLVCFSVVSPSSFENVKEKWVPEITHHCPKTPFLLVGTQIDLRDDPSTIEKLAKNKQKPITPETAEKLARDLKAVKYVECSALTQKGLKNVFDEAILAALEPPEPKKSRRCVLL

Molecular target: GST-tagged p21 binding domain of PAK1 (UniProt Q13153)
Test: pull-down; GST-PBD coupled to glutathione beads; 500 ug of cleared A2780 extracts (24 h after transfection with pcDNA3.1 or pcDNA3.1/eIF6) incubated over-night at 4°C; cdc42 detected by Western blotting; only the target purified

binding: binds
Substance: cdc42 (from UniProt P60953 1-191)
